Experimental data from the supplement of paper PMC12823440, “Inhibitors supercharge kinase turnover through native proteolytic circuits” (Nature, 2025).
Some of the results follow. Hit calls seldom repeat between salt and free forms of one compound.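 In K562 cells expressing nanoluciferase-fused kinases, luminescence was recorded at 4 h intervals between 2 and 18 h, normalized as percent of control with DMSO at 100% and a positive control at 0%. A significant (2 sigma) signal drop marks a time point as decreased. The authors' rule for a hit is not shown and takes in more than the number of time points.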

The chains behind the UniProt entries cited, without tags or fusion partners. Where a name states a change or a piece, a line headed by the entry shows the natural chain unless it says otherwise.
UniProt Q9Y616: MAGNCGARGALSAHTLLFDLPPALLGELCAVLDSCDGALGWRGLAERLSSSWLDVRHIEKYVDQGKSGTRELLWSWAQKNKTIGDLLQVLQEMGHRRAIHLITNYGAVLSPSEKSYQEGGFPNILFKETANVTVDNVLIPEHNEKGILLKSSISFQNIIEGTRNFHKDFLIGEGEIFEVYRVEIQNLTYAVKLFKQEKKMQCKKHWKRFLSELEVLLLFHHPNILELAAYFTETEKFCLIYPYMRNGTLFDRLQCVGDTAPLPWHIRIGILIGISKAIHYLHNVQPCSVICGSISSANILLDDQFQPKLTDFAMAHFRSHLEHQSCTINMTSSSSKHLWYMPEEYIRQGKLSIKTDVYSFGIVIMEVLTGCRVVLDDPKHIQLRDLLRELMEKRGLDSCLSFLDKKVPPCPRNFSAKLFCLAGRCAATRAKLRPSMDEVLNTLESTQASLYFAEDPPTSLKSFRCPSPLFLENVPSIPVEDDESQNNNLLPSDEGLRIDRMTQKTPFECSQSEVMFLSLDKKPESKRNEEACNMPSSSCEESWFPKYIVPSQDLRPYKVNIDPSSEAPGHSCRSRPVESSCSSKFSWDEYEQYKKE
UniProt P23458: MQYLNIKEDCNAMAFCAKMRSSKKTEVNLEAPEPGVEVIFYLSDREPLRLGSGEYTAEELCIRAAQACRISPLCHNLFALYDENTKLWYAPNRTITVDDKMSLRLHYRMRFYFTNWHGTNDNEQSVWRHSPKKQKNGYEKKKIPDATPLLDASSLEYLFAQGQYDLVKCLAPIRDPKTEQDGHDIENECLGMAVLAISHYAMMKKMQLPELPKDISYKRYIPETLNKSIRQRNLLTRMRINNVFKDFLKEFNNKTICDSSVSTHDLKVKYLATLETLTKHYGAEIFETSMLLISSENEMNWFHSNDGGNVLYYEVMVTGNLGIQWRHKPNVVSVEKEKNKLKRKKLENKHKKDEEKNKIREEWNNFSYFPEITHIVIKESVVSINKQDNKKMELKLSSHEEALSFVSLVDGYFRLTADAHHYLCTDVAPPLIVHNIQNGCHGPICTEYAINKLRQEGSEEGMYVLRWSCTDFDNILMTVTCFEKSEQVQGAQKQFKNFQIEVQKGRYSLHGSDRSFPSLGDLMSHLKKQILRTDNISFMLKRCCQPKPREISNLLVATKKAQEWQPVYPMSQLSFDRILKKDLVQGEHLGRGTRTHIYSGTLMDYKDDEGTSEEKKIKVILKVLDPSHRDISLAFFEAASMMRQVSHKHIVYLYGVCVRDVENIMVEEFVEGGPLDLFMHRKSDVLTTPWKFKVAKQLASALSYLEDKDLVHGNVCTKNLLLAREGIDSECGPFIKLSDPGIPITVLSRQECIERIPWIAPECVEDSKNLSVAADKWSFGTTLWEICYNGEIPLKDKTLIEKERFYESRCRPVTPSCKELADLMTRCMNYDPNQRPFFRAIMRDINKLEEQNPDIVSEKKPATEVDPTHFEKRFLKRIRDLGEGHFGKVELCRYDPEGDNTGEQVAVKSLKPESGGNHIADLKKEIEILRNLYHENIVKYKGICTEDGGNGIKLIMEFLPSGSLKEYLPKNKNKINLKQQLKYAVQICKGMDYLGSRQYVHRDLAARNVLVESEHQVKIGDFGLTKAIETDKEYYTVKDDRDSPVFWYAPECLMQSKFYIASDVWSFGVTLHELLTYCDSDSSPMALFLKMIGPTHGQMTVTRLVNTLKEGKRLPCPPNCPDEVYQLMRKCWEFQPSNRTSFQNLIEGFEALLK
UniProt P06239: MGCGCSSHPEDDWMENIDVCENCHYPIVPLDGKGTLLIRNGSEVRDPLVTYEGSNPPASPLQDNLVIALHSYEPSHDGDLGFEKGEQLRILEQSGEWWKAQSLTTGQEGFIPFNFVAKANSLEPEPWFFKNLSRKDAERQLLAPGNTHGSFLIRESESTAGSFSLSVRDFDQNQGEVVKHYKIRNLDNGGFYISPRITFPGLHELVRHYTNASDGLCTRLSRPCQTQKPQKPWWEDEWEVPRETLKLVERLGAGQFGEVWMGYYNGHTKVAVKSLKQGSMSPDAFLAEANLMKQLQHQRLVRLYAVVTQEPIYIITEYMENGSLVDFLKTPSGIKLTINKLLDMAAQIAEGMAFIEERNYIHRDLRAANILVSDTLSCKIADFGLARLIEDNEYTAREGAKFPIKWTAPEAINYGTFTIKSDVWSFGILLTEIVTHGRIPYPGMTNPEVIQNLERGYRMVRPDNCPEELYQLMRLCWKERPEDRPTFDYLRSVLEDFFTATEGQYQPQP
UniProt P53667: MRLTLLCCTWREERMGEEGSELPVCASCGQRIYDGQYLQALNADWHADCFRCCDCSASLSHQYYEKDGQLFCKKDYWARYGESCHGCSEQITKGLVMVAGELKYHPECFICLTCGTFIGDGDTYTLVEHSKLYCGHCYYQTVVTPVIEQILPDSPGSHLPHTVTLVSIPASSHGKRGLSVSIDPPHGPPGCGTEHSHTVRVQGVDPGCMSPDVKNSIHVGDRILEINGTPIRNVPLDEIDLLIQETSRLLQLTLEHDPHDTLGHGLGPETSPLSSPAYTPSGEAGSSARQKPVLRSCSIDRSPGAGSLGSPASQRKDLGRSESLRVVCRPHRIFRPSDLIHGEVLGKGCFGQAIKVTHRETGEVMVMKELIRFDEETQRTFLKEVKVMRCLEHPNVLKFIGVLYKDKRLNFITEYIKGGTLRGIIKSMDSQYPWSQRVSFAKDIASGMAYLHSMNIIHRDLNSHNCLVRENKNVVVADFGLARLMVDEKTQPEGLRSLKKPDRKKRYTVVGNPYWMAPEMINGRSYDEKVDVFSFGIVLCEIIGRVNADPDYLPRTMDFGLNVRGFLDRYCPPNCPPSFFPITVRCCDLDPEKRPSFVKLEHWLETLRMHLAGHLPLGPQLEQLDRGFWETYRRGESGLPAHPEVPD
UniProt P53671: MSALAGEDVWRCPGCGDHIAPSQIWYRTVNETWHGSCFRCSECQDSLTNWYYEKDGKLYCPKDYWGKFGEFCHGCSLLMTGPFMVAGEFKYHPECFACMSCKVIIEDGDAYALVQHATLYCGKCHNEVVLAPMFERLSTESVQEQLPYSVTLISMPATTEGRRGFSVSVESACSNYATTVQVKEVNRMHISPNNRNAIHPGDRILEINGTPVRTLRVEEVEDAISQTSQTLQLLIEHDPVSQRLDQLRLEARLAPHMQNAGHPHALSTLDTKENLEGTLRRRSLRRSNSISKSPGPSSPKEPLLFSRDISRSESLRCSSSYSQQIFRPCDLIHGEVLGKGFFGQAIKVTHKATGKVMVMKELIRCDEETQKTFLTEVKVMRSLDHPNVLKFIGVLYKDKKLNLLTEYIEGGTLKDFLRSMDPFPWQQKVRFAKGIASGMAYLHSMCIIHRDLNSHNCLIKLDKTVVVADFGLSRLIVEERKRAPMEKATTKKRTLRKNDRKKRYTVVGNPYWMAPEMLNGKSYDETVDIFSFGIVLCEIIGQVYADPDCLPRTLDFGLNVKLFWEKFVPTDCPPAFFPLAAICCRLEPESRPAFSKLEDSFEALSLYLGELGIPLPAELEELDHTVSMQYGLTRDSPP
UniProt Q8IWU2: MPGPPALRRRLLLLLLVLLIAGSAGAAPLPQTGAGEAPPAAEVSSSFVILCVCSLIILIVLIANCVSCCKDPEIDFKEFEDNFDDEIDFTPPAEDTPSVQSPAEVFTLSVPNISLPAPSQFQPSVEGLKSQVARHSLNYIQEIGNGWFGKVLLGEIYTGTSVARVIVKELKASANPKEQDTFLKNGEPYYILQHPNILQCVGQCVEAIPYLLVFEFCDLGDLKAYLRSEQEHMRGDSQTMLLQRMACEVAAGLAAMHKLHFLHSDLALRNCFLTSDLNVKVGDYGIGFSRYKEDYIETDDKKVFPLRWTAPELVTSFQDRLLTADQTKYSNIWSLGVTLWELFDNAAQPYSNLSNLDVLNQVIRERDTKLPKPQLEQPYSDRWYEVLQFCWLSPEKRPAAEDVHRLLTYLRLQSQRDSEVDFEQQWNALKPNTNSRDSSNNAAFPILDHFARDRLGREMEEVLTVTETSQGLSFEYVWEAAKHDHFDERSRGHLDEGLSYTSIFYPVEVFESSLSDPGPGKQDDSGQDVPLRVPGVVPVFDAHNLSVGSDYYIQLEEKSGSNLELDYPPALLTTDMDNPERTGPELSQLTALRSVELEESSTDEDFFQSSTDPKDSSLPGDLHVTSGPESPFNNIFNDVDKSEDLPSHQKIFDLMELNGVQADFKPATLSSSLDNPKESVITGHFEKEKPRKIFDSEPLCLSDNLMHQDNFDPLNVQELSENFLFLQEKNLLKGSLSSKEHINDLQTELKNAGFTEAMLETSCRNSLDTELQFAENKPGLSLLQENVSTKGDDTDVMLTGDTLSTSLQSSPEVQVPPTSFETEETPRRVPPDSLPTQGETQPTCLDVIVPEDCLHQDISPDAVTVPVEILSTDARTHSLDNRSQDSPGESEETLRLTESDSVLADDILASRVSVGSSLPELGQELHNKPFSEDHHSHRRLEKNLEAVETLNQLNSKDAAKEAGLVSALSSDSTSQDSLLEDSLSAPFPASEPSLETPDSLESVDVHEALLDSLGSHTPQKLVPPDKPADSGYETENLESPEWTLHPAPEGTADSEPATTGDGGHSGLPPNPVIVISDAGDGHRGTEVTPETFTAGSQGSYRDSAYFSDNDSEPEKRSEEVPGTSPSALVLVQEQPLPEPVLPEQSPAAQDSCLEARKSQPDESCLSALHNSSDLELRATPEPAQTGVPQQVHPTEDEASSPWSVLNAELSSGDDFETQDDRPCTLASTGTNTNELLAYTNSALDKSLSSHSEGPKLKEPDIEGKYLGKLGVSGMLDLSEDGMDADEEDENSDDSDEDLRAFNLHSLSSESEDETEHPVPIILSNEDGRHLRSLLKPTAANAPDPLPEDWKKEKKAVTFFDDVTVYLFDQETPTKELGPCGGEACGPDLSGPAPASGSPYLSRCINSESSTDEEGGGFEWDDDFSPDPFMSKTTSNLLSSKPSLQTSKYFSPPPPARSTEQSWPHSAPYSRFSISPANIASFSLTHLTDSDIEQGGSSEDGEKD
UniProt P07948: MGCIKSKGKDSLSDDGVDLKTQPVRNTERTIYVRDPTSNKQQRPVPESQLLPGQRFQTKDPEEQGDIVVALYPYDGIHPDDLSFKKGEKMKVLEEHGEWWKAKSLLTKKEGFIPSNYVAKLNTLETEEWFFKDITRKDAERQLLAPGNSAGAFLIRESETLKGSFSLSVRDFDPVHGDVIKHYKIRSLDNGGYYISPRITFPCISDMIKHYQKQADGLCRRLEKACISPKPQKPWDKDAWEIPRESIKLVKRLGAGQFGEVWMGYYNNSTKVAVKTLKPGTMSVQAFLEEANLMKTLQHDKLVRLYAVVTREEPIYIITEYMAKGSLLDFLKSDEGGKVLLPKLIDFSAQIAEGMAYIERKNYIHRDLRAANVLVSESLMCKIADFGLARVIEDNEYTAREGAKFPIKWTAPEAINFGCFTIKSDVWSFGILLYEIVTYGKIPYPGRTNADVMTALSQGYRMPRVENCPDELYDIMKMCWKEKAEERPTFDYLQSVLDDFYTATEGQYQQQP
UniProt Q12851: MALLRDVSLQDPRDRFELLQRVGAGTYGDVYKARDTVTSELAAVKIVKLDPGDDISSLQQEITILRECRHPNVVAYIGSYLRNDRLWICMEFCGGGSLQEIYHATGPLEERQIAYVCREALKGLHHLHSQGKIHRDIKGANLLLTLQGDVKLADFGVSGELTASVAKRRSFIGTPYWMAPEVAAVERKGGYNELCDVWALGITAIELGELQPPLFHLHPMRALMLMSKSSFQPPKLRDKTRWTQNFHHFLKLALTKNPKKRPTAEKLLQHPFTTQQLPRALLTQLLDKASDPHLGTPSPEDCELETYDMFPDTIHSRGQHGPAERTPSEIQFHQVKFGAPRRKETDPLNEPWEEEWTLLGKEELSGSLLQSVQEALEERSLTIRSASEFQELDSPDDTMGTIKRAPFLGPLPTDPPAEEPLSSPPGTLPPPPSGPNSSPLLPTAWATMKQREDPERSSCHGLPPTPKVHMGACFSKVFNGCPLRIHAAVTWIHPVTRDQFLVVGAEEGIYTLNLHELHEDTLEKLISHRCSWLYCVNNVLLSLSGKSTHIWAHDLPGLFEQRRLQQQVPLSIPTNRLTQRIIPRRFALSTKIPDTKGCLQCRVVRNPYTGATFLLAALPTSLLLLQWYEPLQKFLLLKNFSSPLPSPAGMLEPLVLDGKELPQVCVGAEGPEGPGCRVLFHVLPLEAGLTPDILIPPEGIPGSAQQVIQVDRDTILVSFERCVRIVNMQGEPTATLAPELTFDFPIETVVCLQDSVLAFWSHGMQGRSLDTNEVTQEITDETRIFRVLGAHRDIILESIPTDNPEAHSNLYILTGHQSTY

What was measured:
Test in all cases: kinase-Nluc reporter destabilization hit call (1 = scored as downregulated) (binary); higher = compound decreases kinase abundance
Details in all cases: K562; 2-18 h
IRAK3 = IRAK3 (UniProt Q9Y616)
JAK1 = JAK1 (UniProt P23458)
LCK = LCK (UniProt P06239)
LIMK1 = LIMK1 (UniProt P53667)
LIMK2 = LIMK2 (UniProt P53671)
LMTK2 = LMTK2 (UniProt Q8IWU2)
LYN = LYN (UniProt P07948)
MAP2K1 = MAP2K1 (UniProt Q02750)
MAP2K2 = MAP2K2 (UniProt P36507)
MAP4K2 = MAP4K2 (UniProt Q12851)

Measured: kinase-Nluc reporter destabilization hit call

Cc1nc(Nc2ncc(C(=O)Nc3c(C)cccc3Cl)s2)cc(N2CCN(C(=O)CCCCCCC(=O)N[C@H](C(=O)N3C[C@H](O)C[C@H]3C(=O)NCc3ccc(-c4scnc4C)cc3)C(C)(C)C)CC2)n1 (2.5 µM)
inactive: IRAK3 = 0 | JAK1 = 0 | LCK 0 | LIMK1 = 0 | LIMK2 = 0 | LMTK2 = 0 | LYN 0 | MAP2K1 = 0 | MAP2K2 = 0 | MAP4K2 = 0

CCn1c(-c2nonc2N)nc2c(C#CCO)ncc(OCCCN)c21 [AKT Kinase Inhibitor] (10 µM)
inactive: IRAK3 = 0 | JAK1 = 0 | LCK 0 | LIMK1 = 0 | LIMK2 = 0 | LMTK2 = 0 | LYN 0 | MAP2K1 = 0 | MAP2K2 = 0 | MAP4K2 = 0

COc1cccc2cc(-c3nc([C@H]4CC[C@H](C(=O)O)CC4)n4ncnc(N)c34)[nH]c12 (2.5 µM)
inactive: IRAK3 = 0 | JAK1 = 0 | LCK 0 | LIMK1 = 0 | LIMK2 = 0 | LMTK2 = 0 | LYN 0 | MAP2K1 = 0 | MAP2K2 = 0 | MAP4K2 = 0

CN(c1ccc(C(F)(F)F)cc1)S(=O)(=O)c1ccc(C(=O)Nc2nc(-c3ccccn3)cs2)cc1 (2.5 µM)
inactive: IRAK3 = 0 | JAK1 = 0 | LCK 0 | LIMK1 = 0 | LIMK2 = 0 | LMTK2 = 0 | LYN 0 | MAP2K1 = 0 | MAP2K2 = 0 | MAP4K2 = 0

O=C1NC(=O)C(c2ccccc2[N+](=O)[O-])=C1Nc1ccc(O)c(Cl)c1 (10 µM)
inactive: IRAK3 = 0 | JAK1 = 0 | LCK 0 | LIMK1 = 0 | LIMK2 = 0 | LMTK2 = 0 | LYN 0 | MAP2K1 = 0 | MAP2K2 = 0 | MAP4K2 = 0

O=C(Nc1nccs1)C(c1cc(F)ccc1O)N1Cc2ccc(-c3ccc(N4CCNCC4)cc3)cc2C1=O (racemic) (10 µM)
inactive: IRAK3 = 0 | JAK1 = 0 | LCK 0 | LIMK1 = 0 | LIMK2 = 0 | LMTK2 = 0 | LYN 0 | MAP2K1 = 0 | MAP2K2 = 0 | MAP4K2 = 0

CC(C)(C)NS(=O)(=O)c1cncc(-c2cc(F)c3nc(N)nn3c2)c1 (10 µM)
inactive: IRAK3 = 0 | JAK1 = 0 | LCK 0 | LIMK1 = 0 | LIMK2 = 0 | LMTK2 = 0 | LYN 0 | MAP2K1 = 0 | MAP2K2 = 0 | MAP4K2 = 0

Not a retest: 2 of the compounds above.
CN(c1ccc(C(F)(F)F)cc1)S(=O)(=O)c1ccc(C(=O)Nc2nc(-c3ccccn3)cs2)cc1 (2.5 µM)
inactive: IRAK3 = 0 | JAK1 = 0 | LCK 0 | LIMK1 = 0 | LIMK2 = 0 | LMTK2 = 0 | LYN 0 | MAP2K1 = 0 | MAP2K2 = 0 | MAP4K2 = 0

O=C1NC(=O)C(c2ccccc2[N+](=O)[O-])=C1Nc1ccc(O)c(Cl)c1 (10 µM)
inactive: IRAK3 = 0 | JAK1 = 0 | LCK 0 | LIMK1 = 0 | LIMK2 = 0 | LMTK2 = 0 | LYN 0 | MAP2K1 = 0 | MAP2K2 = 0 | MAP4K2 = 0

More records.

COc1cc(Nc2nc3ccccc3nc2NS(=O)(=O)c2ccc(NC(=O)c3ccc(C)c(OC)c3)cc2)cc(OC)c1 (10 µM)
inactive: IRAK3 = 0 | JAK1 = 0 | LCK 0 | LIMK1 = 0 | LIMK2 = 0 | LMTK2 = 0 | LYN 0 | MAP2K1 = 0 | MAP2K2 = 0 | MAP4K2 = 0

CCc1nc(C(N)=O)c(Nc2ccc(N3CCC(N4CCN(C)CC4)CC3)c(OC)c2)nc1NC1CCC(OC)CC1 (stereo not given) [EML4-ALK kinase inhibitor 1] (2.5 µM)
inactive: IRAK3 = 0 | JAK1 = 0 | LCK 0 | LIMK1 = 0 | LIMK2 = 0 | LMTK2 = 0 | LYN 0 | MAP2K1 = 0 | MAP2K2 = 0 | MAP4K2 = 0

CCn1c2ccccc2c2cc(Nc3ccnc(NCCCN4CCOCC4)n3)ccc21 (2.5 µM)
inactive: IRAK3 = 0 | JAK1 = 0 | LCK 0 | LIMK1 = 0 | LIMK2 = 0 | LMTK2 = 0 | LYN 0 | MAP2K1 = 0 | MAP2K2 = 0 | MAP4K2 = 0

COc1cc2nccc(Oc3ccc(NC(=O)Nc4ccc(F)cc4F)c(F)c3)c2cc1OC (10 µM)
inactive: IRAK3 = 0 | JAK1 = 0 | LCK 0 | LIMK1 = 0 | LIMK2 = 0 | LMTK2 = 0 | LYN 0 | MAP2K1 = 0 | MAP2K2 = 0 | MAP4K2 = 0

CC[C@H](C)[C@H](NC(=O)[C@H](CCCCN)NC(=O)[C@H](CC(C)C)NC(=O)[C@@H]1CCCN1C(=O)[C@H](CCC(=O)O)NC(=O)[C@H](Cc1ccc(O)cc1)NC(=O)[C@@H](NC(=O)[C@H](CO)NC(=O)CNC(=O)[C@H](CO)NC(=O)[C@H](CCCN=C(N)N)NC(=O)[C@H](CCCCN)NC(=O)[C@@H](NC(=O)[C@@H](N)CCCN=C(N)N)[C@@H](C)O)C(C)C)C(=O)O [Malantide] (10 µM)
inactive: IRAK3 = 0 | JAK1 = 0 | LCK 0 | LIMK1 = 0 | LIMK2 = 0 | LMTK2 = 0 | LYN 0 | MAP2K1 = 0 | MAP2K2 = 0 | MAP4K2 = 0

CNS(=O)(=O)Nc1nccc(Cc2c(C)c3ccc(Oc4ncccn4)cc3oc2=O)c1F (10 µM)
inactive: IRAK3 = 0 | JAK1 = 0 | LCK 0 | LIMK1 = 0 | LIMK2 = 0 | LMTK2 = 0 | LYN 0 | MAP2K1 = 0 | MAP2K2 = 0 | MAP4K2 = 0

C=C[C@H]1[C@H](O[C@@H]2O[C@H](CO)[C@@H](O)[C@H](O)[C@H]2O)OC=C(C(=O)OC)[C@H]1CCOC(=O)c1cc(O)c(O)c(O)c1 [Cornuside] (10 µM)
inactive: IRAK3 = 0 | JAK1 = 0 | LCK 0 | LIMK1 = 0 | LIMK2 = 0 | LMTK2 = 0 | LYN 0 | MAP2K1 = 0 | MAP2K2 = 0 | MAP4K2 = 0

Cc1cccc(-c2[nH]c(C(C)(C)C)nc2-c2ccc3c(c2)OCO3)n1 (2.5 µM)
inactive: IRAK3 = 0 | JAK1 = 0 | LCK 0 | LIMK1 = 0 | LIMK2 = 0 | LMTK2 = 0 | LYN 0 | MAP2K1 = 0 | MAP2K2 = 0 | MAP4K2 = 0

CC(=O)NCC(=O)N[C@@H](C)C(=O)N[C@@H](CCC(N)=O)C(=O)N[C@@H](Cc1ccccc1)C(=O)N[C@@H](CO)C(=O)N[C@@H](CCCCN)C(=O)N[C@H](C(=O)N[C@@H](C)C(=O)N[C@@H](C)C(=O)N[C@@H](CCCCN)C(=O)O)[C@@H](C)O (10 µM)
inactive: IRAK3 = 0 | JAK1 = 0 | LCK 0 | LIMK1 = 0 | LIMK2 = 0 | LMTK2 = 0 | LYN 0 | MAP2K1 = 0 | MAP2K2 = 0 | MAP4K2 = 0
